Assay results as given in the supplement of paper PMC12067093, “Discovery and optimisation of a covalent ligand for TRIM25 and its application to targeted protein ubiquitination” (Chemical Science, 2025).
The other results are listed elsewhere or left out.

By UniProt entry, the sequences of proteins in these tests, tags left out. Where a name states a change or a piece, a line headed by the entry shows the natural chain unless it says otherwise.
UniProt Q9P246, whole entry, looked up: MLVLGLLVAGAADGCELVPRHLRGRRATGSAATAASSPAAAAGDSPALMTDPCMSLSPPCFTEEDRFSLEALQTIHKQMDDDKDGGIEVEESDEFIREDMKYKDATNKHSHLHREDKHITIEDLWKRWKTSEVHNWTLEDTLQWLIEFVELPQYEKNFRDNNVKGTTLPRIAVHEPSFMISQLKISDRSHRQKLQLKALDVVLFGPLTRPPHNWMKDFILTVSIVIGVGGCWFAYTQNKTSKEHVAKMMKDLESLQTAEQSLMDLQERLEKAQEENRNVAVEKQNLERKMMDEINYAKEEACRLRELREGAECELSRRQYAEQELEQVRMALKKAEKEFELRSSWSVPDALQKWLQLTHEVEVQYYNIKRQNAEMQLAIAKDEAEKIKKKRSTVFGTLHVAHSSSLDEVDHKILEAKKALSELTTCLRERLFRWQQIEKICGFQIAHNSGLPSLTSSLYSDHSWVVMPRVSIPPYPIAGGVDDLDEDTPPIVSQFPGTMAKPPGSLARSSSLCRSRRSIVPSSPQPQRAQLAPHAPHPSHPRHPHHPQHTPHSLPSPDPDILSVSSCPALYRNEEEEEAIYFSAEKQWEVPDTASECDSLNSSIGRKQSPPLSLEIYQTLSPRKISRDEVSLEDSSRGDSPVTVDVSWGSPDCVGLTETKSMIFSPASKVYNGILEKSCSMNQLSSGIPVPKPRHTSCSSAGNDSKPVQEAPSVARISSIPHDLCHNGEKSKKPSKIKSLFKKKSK
UniProt O43815: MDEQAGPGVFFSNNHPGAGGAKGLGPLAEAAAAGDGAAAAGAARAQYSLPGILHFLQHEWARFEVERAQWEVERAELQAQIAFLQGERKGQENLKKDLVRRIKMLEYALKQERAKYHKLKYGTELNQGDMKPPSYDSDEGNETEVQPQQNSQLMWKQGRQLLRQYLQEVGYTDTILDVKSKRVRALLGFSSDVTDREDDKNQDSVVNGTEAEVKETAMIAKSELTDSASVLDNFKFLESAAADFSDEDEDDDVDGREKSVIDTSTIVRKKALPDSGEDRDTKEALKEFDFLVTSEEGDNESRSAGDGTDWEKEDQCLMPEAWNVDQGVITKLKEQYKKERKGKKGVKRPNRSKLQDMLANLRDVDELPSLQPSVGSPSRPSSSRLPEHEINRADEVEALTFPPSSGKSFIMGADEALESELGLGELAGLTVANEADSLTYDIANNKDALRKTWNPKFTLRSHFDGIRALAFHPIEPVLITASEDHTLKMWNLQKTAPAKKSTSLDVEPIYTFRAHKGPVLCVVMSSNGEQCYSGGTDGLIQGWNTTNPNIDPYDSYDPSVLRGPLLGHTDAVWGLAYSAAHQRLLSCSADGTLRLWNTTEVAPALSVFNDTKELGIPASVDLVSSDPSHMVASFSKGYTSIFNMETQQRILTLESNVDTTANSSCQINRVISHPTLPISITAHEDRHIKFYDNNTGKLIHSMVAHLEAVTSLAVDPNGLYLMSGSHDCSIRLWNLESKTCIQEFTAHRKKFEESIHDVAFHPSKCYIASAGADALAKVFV
UniProt Q86Y82: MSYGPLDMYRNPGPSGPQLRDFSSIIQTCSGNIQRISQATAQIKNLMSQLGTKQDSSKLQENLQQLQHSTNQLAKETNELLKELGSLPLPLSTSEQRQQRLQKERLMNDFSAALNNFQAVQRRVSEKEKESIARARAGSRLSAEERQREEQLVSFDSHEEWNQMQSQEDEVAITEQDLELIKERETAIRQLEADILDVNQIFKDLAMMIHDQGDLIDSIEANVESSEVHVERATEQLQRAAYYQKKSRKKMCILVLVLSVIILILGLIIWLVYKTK
UniProt P31948, whole entry, looked up: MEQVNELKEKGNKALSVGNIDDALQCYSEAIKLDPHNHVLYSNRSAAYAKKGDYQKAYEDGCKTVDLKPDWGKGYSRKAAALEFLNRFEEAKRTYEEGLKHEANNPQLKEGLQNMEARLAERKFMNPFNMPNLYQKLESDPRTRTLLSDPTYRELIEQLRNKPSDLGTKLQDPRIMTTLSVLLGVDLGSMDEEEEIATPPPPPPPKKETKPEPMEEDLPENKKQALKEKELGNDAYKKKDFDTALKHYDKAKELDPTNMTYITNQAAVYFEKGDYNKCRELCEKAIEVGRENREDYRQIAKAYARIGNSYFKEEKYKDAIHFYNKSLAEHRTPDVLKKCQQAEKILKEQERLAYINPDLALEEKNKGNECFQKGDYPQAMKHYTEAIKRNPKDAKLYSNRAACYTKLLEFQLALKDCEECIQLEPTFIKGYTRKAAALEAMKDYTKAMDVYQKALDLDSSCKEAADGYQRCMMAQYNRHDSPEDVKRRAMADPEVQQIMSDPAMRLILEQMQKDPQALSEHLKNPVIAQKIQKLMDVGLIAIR
UniProt Q9Y5Y6: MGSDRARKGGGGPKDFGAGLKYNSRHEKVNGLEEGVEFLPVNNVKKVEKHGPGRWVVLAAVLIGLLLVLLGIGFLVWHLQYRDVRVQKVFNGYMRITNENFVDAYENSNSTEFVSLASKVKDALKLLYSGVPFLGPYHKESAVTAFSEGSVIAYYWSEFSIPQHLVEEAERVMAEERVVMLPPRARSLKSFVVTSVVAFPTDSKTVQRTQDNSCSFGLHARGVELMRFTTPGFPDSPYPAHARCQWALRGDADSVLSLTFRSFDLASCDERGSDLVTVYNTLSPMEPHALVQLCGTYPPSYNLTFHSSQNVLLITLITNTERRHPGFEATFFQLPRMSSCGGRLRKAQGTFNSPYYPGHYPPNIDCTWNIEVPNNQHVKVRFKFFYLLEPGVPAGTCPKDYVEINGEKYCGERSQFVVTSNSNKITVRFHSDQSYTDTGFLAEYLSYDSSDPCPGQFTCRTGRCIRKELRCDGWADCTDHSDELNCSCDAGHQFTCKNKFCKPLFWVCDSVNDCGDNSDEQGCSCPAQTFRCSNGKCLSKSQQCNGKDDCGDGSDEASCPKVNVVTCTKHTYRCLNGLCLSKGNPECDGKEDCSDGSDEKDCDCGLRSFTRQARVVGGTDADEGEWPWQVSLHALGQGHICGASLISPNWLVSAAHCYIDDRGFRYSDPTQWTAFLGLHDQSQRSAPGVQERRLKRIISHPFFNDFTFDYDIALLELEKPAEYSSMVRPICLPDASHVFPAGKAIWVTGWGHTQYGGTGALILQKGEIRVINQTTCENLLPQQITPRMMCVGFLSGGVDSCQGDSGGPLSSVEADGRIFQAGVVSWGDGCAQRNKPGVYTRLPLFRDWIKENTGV
UniProt Q9UNE7: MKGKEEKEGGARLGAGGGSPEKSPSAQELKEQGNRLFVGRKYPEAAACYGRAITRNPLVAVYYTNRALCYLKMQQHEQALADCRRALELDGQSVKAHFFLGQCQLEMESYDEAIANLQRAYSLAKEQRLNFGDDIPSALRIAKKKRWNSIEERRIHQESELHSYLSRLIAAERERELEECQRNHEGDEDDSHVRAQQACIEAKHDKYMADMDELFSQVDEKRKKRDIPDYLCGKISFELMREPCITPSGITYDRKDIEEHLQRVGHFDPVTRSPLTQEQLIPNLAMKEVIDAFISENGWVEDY
UniProt O95630, whole entry, looked up: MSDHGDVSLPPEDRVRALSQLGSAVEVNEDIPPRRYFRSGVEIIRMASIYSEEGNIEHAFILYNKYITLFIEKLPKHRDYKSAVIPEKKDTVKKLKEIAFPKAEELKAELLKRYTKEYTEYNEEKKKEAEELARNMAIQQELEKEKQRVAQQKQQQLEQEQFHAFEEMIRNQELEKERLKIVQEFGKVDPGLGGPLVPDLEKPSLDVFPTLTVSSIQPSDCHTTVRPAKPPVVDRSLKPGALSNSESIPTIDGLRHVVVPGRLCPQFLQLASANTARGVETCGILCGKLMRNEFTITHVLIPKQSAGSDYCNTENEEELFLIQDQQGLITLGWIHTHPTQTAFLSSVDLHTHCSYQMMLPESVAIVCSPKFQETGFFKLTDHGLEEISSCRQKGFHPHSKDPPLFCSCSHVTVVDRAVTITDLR
UniProt O75494: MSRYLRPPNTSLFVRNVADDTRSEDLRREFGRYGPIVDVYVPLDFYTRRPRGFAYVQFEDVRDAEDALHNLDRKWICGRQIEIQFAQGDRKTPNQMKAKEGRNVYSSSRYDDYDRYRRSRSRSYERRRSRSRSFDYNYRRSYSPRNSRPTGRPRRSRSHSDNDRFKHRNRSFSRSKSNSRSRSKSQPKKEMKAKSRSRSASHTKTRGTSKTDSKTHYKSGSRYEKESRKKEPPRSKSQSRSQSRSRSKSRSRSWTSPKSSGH
UniProt Q658P3: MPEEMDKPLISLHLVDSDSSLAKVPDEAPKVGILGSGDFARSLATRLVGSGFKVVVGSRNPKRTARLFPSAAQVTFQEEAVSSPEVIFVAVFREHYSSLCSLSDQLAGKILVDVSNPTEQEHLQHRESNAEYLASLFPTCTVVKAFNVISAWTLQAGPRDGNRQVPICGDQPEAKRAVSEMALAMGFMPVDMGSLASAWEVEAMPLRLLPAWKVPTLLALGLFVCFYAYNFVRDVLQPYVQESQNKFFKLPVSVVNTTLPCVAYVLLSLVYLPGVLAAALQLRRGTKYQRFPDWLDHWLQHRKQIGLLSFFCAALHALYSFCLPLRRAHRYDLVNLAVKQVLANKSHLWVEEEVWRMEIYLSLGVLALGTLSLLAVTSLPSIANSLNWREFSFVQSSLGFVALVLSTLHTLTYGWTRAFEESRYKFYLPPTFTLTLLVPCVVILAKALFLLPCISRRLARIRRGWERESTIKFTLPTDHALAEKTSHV
UniProt Q9Y2Z0: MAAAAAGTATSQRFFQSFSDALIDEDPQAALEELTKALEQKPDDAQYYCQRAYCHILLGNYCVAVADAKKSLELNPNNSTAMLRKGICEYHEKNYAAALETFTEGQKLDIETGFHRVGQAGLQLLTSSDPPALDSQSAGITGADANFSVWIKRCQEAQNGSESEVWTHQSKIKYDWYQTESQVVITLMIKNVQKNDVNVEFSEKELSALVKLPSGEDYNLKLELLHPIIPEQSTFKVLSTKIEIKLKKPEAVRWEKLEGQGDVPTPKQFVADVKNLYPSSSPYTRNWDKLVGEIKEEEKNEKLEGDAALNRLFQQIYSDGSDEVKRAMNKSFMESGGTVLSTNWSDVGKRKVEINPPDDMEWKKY
UniProt Q9BXP5: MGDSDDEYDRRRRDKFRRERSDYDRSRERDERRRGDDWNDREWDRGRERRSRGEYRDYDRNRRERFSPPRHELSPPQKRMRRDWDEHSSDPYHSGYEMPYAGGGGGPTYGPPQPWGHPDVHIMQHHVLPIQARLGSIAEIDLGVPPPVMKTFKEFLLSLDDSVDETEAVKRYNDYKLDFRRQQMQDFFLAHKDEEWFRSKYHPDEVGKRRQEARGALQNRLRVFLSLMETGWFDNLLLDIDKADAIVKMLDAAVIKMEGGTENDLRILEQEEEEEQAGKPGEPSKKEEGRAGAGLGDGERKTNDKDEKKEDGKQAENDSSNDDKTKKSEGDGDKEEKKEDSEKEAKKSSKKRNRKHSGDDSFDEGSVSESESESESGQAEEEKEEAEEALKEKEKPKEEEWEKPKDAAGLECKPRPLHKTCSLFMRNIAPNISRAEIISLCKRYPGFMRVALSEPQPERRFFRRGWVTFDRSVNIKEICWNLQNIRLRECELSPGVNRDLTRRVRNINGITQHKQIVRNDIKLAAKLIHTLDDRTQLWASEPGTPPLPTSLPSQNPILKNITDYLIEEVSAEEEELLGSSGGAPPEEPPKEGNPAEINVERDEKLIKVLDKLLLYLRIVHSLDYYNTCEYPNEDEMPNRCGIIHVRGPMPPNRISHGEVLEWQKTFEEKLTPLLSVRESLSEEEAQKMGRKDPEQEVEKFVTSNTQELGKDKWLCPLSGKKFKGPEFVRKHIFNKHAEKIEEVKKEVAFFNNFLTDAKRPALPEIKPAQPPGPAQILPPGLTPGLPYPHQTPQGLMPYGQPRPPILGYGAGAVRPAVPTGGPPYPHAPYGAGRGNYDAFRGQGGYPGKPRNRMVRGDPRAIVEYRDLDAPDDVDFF
UniProt O00186: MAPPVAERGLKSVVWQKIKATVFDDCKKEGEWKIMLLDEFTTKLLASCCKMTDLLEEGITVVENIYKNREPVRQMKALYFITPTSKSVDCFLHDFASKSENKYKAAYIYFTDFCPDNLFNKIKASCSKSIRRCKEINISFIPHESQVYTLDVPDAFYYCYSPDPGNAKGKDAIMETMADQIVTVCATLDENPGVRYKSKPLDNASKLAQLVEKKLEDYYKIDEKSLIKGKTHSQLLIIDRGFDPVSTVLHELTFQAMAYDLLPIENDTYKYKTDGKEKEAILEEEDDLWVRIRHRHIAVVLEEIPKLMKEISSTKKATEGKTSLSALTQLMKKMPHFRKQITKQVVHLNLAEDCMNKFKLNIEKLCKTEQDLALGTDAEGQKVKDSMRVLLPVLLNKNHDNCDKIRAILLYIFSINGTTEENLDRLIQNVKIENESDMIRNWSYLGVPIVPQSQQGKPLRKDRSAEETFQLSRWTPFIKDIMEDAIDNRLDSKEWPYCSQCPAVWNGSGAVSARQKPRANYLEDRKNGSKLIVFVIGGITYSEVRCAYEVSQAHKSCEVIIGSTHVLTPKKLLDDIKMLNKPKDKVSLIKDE

Compound: CC1Cc2ccccc2N1C(=O)C1CCCN(C1)C(=O)CCl (mixture of isomers) [TRIM25 ligand 11 (diastereomer mixture)]
Assay: probe-labelled cysteine peptide fold change vs DMSO (competition) (log2 fold change); higher = less target engagement (more negative = stronger competition)
Settings: THP-1, incubation time: 4 h
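Further: competitive chemoproteomic profiling in live THP-1 cells with an iodoacetamide desthiobiotin (IA-DTB) probe, comparing probe-labelled peptide intensities in compound-treated cells against DMSO-treated controls.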

Target	probe-labelled cysteine peptide fold change (10 µM)	probe-labelled cysteine peptide fold change (50 µM)
STK11IP_Q8N1F8_710_TESPAVCPNCGSDHVVLLAVSR (UniProt Q8N1F8)	0.0375	0.276
SUMF2_Q8NBJ7_290_CAADAGRPPGEL (UniProt Q8NBJ7)	-0.0159	-0.0645
STIM2_Q9P246_313_EGAECELSR (UniProt Q9P246)	0.0213	-0.231
STRN_O43815_316_EDQCLMPEAWNVDQGVITK (UniProt O43815)	-0.0944	-0.257
SUMF1_Q8NBK3_235_RLPTEAEWEYSCR (UniProt Q8NBK3)	-0.0639	-0.178
STX12_Q86Y82_29_DFSSIIQTCSGNIQR (UniProt Q86Y82)	0.0879	-0.025
STIP1_P31948_417_DCEECIQLEPTFIK (UniProt P31948)	-0.211	0.0682
ST14_Q9Y5Y6_214_TQDNSCSFGLHAR (UniProt Q9Y5Y6)	0.123	-0.0316
SUPT4H1_P63272_16_ACLLCSLVK (UniProt P63272)	0.0915	0.0428
SUMO1_P63165_52_ESYCQR (UniProt P63165)	0.000976	0.048
SVIL_O95425_1928_ALIYLWHGCK (UniProt O95425)	-0.0554	0.195
STK17B_O94768_334_SSCNGTCGDREDK (UniProt O94768)	-0.103	-0.00892
STUB1_Q9UNE7_83_MQQHEQALADCR (UniProt Q9UNE7)	0.0976	0.127
SUN1_O94901_403_QPLQGDSEAFPWHWMSGVEQQVASLSGQCHHHGENLR (UniProt O94901)	-0.168	0.0175
STXBP2_Q15833_158_EIHLAFLPYEAQVFSLDAPHSTYNLYCPFRAEER (UniProt Q15833)	-0.269	-0.351
STAMBP_O95630_390_LTDHGLEEISSCR (UniProt O95630)	0.19	-0.0455
SURF2_Q15527_127_QGVEYVPACLVHR (UniProt Q15527)	-0.276	0.057
SRSF10_O75494-3_167_SHSDNDRPNCSWNTQYSSAYYTSR (UniProt O75494)	-0.29	-0.219
STRIP1_Q5VSL9_769_HRLNDDWAYGNDLDARPWDFQAEECALR (UniProt Q5VSL9)	-0.224	-0.145
SSU72_Q9NP77_192_TFLHTVCFY (UniProt Q9NP77)	-0.159	0.226
SUPT5H_O00267_638_KLVENGGMFVCK (UniProt O00267)	0.00368	0.0985

Target	probe-labelled cysteine peptide fold change (10 µM)	probe-labelled cysteine peptide fold change (50 µM)
STEAP3_Q658P3_168_QVPICGDQPEAK (UniProt Q658P3)	0.0193	-0.124
STEAP3_Q658P3_140_ESNAEYLASLFPTCTVVK (UniProt Q658P3)	0.0192	-0.0189
SUGT1_Q9Y2Z0_54_AYCHILLGNYCVAVADAKK (UniProt Q9Y2Z0)	-0.16	-0.0849
SSBP3_Q9BWW4_80_DTCEHSSEAK (UniProt Q9BWW4)	-0.0926	-0.432
STRN_O43815_740_TCIQEFTAHR (UniProt O43815)	0.104	0.246
SRRT_Q9BXP5_628_IVHSLDYYNTCEYPNEDEMPNR (UniProt Q9BXP5)	0.0704	-0.0323
STK4_Q13043_80_EISIMQQCDSPHVVK (UniProt Q13043)	-0.0403	-0.0804
STXBP3_O00186_546_CAYEVSQAHK (UniProt O00186)	0.118	0.132
STAMBP_O95630_282_GVETCGILCGK (UniProt O95630)	0.141	0.102
SRRM2_Q9UQ35_956_SVSPCSNVESR (UniProt Q9UQ35)	-0.0202	0.258
STXBP2_Q15833_353_YSTHLHLADDCMK (UniProt Q15833)	-0.0444	-0.283
STXBP3_O00186_26_ATVFDDCKK (UniProt O00186)	0.0345	-0.0748
STIL_Q15468_353_CELSAESQNAETEFFSK (UniProt Q15468)	0.151	-0.109
SUPV3L1_Q8IYB8_251_SNAAGVPCDLVTGEER (UniProt Q8IYB8)	0.125	-0.225
STIP1_P31948_461_ALDLDSSCK (UniProt P31948)	-0.0542	-0.0246
SUGT1_Q9Y2Z0_49_ALEQKPDDAQYYCQR (UniProt Q9Y2Z0)	0.0223	0.00988
SRRT_Q9BXP5_421_TCSLFMR (UniProt Q9BXP5)	0.00831	-0.0116
STOML2_Q9UJZ1_167_ESLNASIVDAINQAADCWGIR (UniProt Q9UJZ1)	0.0415	0.101
STXBP5_Q5T5C0_933_VISLPTQNCAYK (UniProt Q5T5C0)	0.21	0.269
STAG2_Q8N3U4_527_QESALIEIMLCTIR (UniProt Q8N3U4)	-0.31	-0.336
STAT2_P52630_74_CSQDPESLLLQHNLR (UniProt P52630)	0.116	0.0599

Target	probe-labelled cysteine peptide fold change (10 µM)	probe-labelled cysteine peptide fold change (50 µM)
STAT2_P52630_174_DQQDVFCFR (UniProt P52630)	0.0891	-0.00746
SUPT5H_O00267_429_EHNFQPGDNVEVCEGELINLQGK (UniProt O00267)	-0.0998	-0.175
SSB_P05455_18_ICHQIEYYFGDFNLPR (UniProt P05455)	-0.0697	-0.0312
ST14_Q9Y5Y6_550_SQQCNGKDDCGDGSDEASCPK (UniProt Q9Y5Y6)	0.0828	0.0306
SRSF7_Q16629_73_VICGSR (UniProt Q16629)	-0.452	-0.251
SSRP1_Q08945_139_FGGQLLSFDIGDQPVFEIPLSNVSQCTTGK (UniProt Q08945)	0.26	-0.0737
STYX_Q8WUJ0_156_FCINPNAGFVHQLQEYEAIYLAK (UniProt Q8WUJ0)	0.115	0.0113
STUB1_Q9UNE7_83_MQQHEQALADCRR (UniProt Q9UNE7)	-0.218	-0.0369
STXBP3_O00186_26_ATVFDDCK (UniProt O00186)	0.0374	-0.123
STRBP_Q96SI9_254_SIGTCNRPLGAGEALR (UniProt Q96SI9)	0.0721	0.0402
SRRM1_Q8IYB3_33_FAECLEK (UniProt Q8IYB3)	-0.106	0.055
STK10_O94804_873_DMLAQCESNMSELQQLQNEK (UniProt O94804)	-0.213	-0.448
STBD1_O95210_337_WEECSNR (UniProt O95210)	0.186	0.0677
STIM2_Q9P246_426_ALSELTTCLR (UniProt Q9P246)	-0.0606	0.143
STXBP3_O00186_114_AAYIYFTDFCPDNLFNK (UniProt O00186)	0.0302	0.141
STAT1_P42224_492_NLSFFLTPPCAR (UniProt P42224)	0.177	-0.0776
SUCLA2_Q9P2R7_384_CDVIAQGIVMAVK (UniProt Q9P2R7)	0.0376	0.147
STX7_O15400_28_ITQCSVEIQR (UniProt O15400)	-0.0692	0.0818
SUPT6H_Q7KZ85_1169_LIICNVTGIAHR (UniProt Q7KZ85)	0.103	0.209
STT3B_Q8TCJ2_40_HGHHGPGAQCAHK (UniProt Q8TCJ2)	-0.144	-0.272

Pulled one by one from the entries so far (3):
Target	probe-labelled cysteine peptide fold change (10 µM)	probe-labelled cysteine peptide fold change (50 µM)
SRRT_Q9BXP5_628_IVHSLDYYNTCEYPNEDEMPNR (UniProt Q9BXP5)	0.0704	-0.0323
SUPT5H_O00267_638_KLVENGGMFVCK (UniProt O00267)	0.00368	0.0985
STX12_Q86Y82_29_DFSSIIQTCSGNIQR (UniProt Q86Y82)	0.0879	-0.025
